Data source: PubChem BioAssay AID652259 (Drosophila RNAi Screening Center, 2013)
Test: 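Identify new Wingless signalling regulators in fly cells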 (primary screen). Cells: Drosophila clone 8 imaginal disc epithelial cells. Reagent: long dsRNA against Drosophila genes. Challenge: pathway stimulated by co-transfected Wingless expression plasmid. Detection: 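Firefly luciferase from a tcf-site Wingless reporter, measured alongside co-transfected Renilla luciferase that tracks transfection; pathway stimulated by a Wingless plasmid; the firefly-to-Renilla ratio is not deposited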. Reading the numbers: firefly reporter light: higher = more Wg reporter light, before normalisation; Renilla control light: higher = more transfected or surviving cells. Hit rule: 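Strong candidates differ from their plate mean by at least two out of four per-plate statistical tests; weak candidates meet just one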. Meaning of the calls: active = candidate regulator (raises or lowers reporter); inactive = not a candidate.
The screen tested about 22,000 reagents; below is a random part of those with a known target gene and a result. Over the whole deposit, 233 (1.1%) were called active. 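Light values are raw, unnormalised plate reads; the ratio scores behind the reporter calls were not deposited.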 The numbers tell different reagents against one gene apart. Not given: the amount of reagent, the time to read-out, the dose of the treatment.

Depletion of CG8173 (GeneID 32753) resulted in: firefly reporter light, replicate 1 = 14723; Renilla control light, replicate 1 = 8311; inactive.
For Sar1 (GeneID 42615) #1, the entry reads firefly reporter light, replicate 1 = 3904; firefly reporter light, replicate 2 = 7250; Renilla control light, replicate 1 = 1733; Renilla control light, replicate 2 = 2823; inactive.
Sar1 (GeneID 42615) #2 gave firefly reporter light, replicate 1 = 8.48e5; firefly reporter light, replicate 2 = 7.50e5; Renilla control light, replicate 1 = 4.21e5; Renilla control light, replicate 2 = 5.10e5; inactive.
After knock-down of Pex5 (GeneID 31141), the screen gave firefly reporter light, replicate 1 = 20804; Renilla control light, replicate 1 = 12416; inactive.
THADA (GeneID 33001) showed firefly reporter light, replicate 1 = 3682; firefly reporter light, replicate 2 = 7484; Renilla control light, replicate 1 = 1488; Renilla control light, replicate 2 = 3674; inactive.
After knock-down of Femcoat (GeneID 31367), the screen gave firefly reporter light, replicate 1 = 20096; Renilla control light, replicate 1 = 9255; inactive.
Silencing of tho2 (GeneID 326153) resulted in: firefly reporter light, replicate 1 = 10183; Renilla control light, replicate 1 = 2976; inactive.
Against CG30380 (GeneID 246579), the values are firefly reporter light, replicate 1 = 18348; Renilla control light, replicate 1 = 8389; inactive.
Silencing of PolrMT (GeneID 33285) came out at: firefly reporter light, replicate 1 = 9456; Renilla control light, replicate 1 = 2840; inactive.
With knock-down of Vps52 (GeneID 33774), the screen gave firefly reporter light, replicate 1 = 1776; firefly reporter light, replicate 2 = 5898; Renilla control light, replicate 1 = 643; Renilla control light, replicate 2 = 1076; inactive.
With knock-down of CG16904 (GeneID 41212), the screen gave firefly reporter light, replicate 1 = 5754; Renilla control light, replicate 1 = 2220; inactive.
Against CG6216 (GeneID 39257), the values are firefly reporter light, replicate 1 = 7828; Renilla control light, replicate 1 = 2690; inactive.
CG5890 (GeneID 43126) gave firefly reporter light, replicate 1 = 12089; Renilla control light, replicate 1 = 11856; inactive.
mRpL2 (GeneID 39253) gave firefly reporter light, replicate 1 = 5984; Renilla control light, replicate 1 = 2208; inactive.
With knock-down of Kdm4B (GeneID 318918) the results were firefly reporter light, replicate 1 = 7752; Renilla control light, replicate 1 = 2585; inactive.
With knock-down of Graf (GeneID 32522), the screen gave firefly reporter light, replicate 1 = 1940; firefly reporter light, replicate 2 = 4305; Renilla control light, replicate 1 = 800; Renilla control light, replicate 2 = 1617; inactive.
YME1L (GeneID 37636) showed firefly reporter light, replicate 1 = 8137; Renilla control light, replicate 1 = 2484; inactive.
CG9663 (GeneID 33541) gave firefly reporter light, replicate 1 = 9530; Renilla control light, replicate 1 = 4087; inactive.
After knock-down of CG32750 (GeneID 326238), the screen gave firefly reporter light, replicate 1 = 14375; Renilla control light, replicate 1 = 8341; inactive.
Against CG43102 (GeneID 42137) #1, the values are firefly reporter light, replicate 1 = 5177; Renilla control light, replicate 1 = 2294; inactive.
After knock-down of CG43102 (GeneID 42137) #2, the record shows firefly reporter light, replicate 1 = 22042; firefly reporter light, replicate 2 = 7.52e5; Renilla control light, replicate 1 = 6677; Renilla control light, replicate 2 = 3.76e5; inactive.
Silencing of CG43102 (GeneID 42137) #3 came out at: firefly reporter light, replicate 1 = 10108; Renilla control light, replicate 1 = 2720; inactive.
For ND-B18 (GeneID 32434) the deposit lists firefly reporter light, replicate 1 = 22134; Renilla control light, replicate 1 = 9172; inactive.
Silencing of nes (GeneID 40093) resulted in: firefly reporter light, replicate 1 = 12330; Renilla control light, replicate 1 = 3483; inactive.
CG14562 (GeneID 40439) showed firefly reporter light, replicate 1 = 13693; Renilla control light, replicate 1 = 2989; inactive.
Depletion of CG15256 (GeneID 34911) #1 came out at: firefly reporter light, replicate 1 = 23616; Renilla control light, replicate 1 = 12298; inactive.
After knock-down of CG15256 (GeneID 34911) #2 the results were firefly reporter light, replicate 1 = 2296; firefly reporter light, replicate 2 = 4892; Renilla control light, replicate 1 = 839; Renilla control light, replicate 2 = 2535; inactive.
Against CG16713 (GeneID 33591), the entry reads firefly reporter light, replicate 1 = 3160; firefly reporter light, replicate 2 = 9433; Renilla control light, replicate 1 = 1024; Renilla control light, replicate 2 = 2787; inactive.
For CG15877 (GeneID 38304) the deposit lists firefly reporter light, replicate 1 = 3909; Renilla control light, replicate 1 = 2850; inactive.
Depletion of scb (GeneID 36692) #1 came out at: firefly reporter light, replicate 1 = 23395; Renilla control light, replicate 1 = 17405; inactive.
Against scb (GeneID 36692) #2 the deposit lists firefly reporter light, replicate 1 = 7174; Renilla control light, replicate 1 = 2135; inactive.
With knock-down of Ptth (GeneID 33238), the record shows firefly reporter light, replicate 1 = 3354; firefly reporter light, replicate 2 = 7078; Renilla control light, replicate 1 = 1232; Renilla control light, replicate 2 = 2532; inactive.

Reformatted: 2 of the entries above.
{"Target gene":"scb (GeneID 36692)","reagent no.":1,"firefly reporter light, replicate 1":23395,"Renilla control light, replicate 1":17405,"outcome":"inactive"}
{"Target gene":"scb (GeneID 36692)","reagent no.":2,"firefly reporter light, replicate 1":7174,"Renilla control light, replicate 1":2135,"outcome":"inactive"}
